Among the data in paper PMC6260918 are binding values, retold here.

These are yes or no findings as the source states them, for the method shown. Binding can be weak; no strength is given. Where a sequence is shown, tags or fusion partners need not be part of it.

The assay has as its target T1, GST-TXNIP-T (150a.a-317a.a) (UniProt Q9H3M7).
T1 sequence: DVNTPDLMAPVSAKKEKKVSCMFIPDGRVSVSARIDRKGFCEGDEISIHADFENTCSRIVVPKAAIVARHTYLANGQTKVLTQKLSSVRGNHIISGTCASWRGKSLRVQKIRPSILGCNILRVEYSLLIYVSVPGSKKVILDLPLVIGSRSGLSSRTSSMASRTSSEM
Nature of the assay: pull-down; GST pull-down of recombinant proteins, GST-TXNIP-T (150-317) and His-AKT; both purified.

Take His-AKT (enzyme): the binding entry is reported as “binds”.
